Experimental findings from article PMC3465347, “Regulation of NF-κB Activation through a Novel PI-3K-Independent and PKA/Akt-Dependent Pathway in Human Umbilical Vein Endothelial Cells” (PLoS ONE, 2012) are described below.

No constants are given. Whether binding was seen depends on the method and setting. Binding seen in cells or lysates may run through a third protein. A result given as binding can be weak or reduced; the word gives no strength.

For the assay, the target named is T1, IKK-β (human (endogenous in HUVECs)) (UniProt O14920).
T1 sequence: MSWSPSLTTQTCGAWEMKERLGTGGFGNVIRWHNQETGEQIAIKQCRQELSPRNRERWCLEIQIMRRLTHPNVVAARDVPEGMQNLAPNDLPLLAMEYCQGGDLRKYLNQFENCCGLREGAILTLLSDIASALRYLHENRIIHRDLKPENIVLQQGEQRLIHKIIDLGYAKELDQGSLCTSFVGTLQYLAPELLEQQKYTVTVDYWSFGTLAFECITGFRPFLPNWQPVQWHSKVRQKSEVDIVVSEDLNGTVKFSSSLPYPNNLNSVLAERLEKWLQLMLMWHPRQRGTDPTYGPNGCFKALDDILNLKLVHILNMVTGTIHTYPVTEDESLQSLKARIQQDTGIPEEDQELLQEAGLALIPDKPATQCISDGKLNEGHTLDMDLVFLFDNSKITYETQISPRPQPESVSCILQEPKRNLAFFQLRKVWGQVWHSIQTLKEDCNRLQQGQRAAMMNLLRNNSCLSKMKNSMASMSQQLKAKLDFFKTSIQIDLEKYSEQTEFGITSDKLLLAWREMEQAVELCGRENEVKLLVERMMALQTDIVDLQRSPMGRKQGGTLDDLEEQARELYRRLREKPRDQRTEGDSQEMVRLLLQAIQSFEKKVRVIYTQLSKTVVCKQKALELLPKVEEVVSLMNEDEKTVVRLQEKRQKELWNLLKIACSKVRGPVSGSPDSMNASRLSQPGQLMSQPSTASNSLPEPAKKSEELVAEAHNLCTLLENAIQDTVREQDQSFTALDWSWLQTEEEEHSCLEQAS
The experiment in a line: co-IP; total cell extracts of HUVECs induced with TNF-α (10 ng/ml) for the indicated times, with or without MPTAG pretreatment; immunoprecipitated with anti-IKK-β antibody and protein G beads at 4°C; western blot with anti-Akt and anti-IKK-β; lysis buffer 50 mM HEPES pH 7.6, 100 mM NaCl, 1% NP-40. For orientation: Immunoblotting shows a protein as a band on a membrane.

As for Akt (human (endogenous in HUVECs)), the binding result is on record as “binds”.
